Some test systems named below: HGS (human); HIP1 (human); HIP2 (human); HK1 (human); HKDC1 (human); HMG20B (human); HN1 (human); HPCAL1 (human); HPGD (human); HS2ST1 (human); HS3ST1 (human); HSBP1 (human).
What all share (assay): protein microarray (ProtoArray v5.0), streptavidin-Alexa Fluor 647
Holding throughout (settings): 3'-biotin; 20 mM Tris (pH 7.5), 5 mM MgCl2, 100 mM KCl, 0.1% Tween-20, A/T-rich and random oligonucleotide blockers; temperature not stated; high values mean tight binding

The chains behind the UniProt entries cited, without tags or fusion partners. Where a name states a change or a piece, a line headed by the entry shows the natural chain unless it says otherwise.
UniProt P49773: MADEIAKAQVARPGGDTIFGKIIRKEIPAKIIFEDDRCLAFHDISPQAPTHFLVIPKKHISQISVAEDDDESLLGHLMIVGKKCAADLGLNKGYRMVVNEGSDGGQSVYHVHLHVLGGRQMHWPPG
UniProt Q15651: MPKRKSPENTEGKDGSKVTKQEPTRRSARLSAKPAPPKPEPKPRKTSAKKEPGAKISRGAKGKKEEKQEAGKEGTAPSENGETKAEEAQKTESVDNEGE
UniProt P09651: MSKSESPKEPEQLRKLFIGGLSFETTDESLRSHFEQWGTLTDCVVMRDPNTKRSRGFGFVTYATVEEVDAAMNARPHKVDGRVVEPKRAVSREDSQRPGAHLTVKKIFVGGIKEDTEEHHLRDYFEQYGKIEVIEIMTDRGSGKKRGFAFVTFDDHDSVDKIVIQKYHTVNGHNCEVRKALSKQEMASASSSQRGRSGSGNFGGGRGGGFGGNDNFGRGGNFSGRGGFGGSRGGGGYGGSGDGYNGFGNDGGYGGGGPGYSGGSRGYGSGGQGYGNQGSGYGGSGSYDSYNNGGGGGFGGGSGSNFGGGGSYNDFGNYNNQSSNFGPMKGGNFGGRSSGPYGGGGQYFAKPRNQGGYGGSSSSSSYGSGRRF
UniProt P14625, whole entry: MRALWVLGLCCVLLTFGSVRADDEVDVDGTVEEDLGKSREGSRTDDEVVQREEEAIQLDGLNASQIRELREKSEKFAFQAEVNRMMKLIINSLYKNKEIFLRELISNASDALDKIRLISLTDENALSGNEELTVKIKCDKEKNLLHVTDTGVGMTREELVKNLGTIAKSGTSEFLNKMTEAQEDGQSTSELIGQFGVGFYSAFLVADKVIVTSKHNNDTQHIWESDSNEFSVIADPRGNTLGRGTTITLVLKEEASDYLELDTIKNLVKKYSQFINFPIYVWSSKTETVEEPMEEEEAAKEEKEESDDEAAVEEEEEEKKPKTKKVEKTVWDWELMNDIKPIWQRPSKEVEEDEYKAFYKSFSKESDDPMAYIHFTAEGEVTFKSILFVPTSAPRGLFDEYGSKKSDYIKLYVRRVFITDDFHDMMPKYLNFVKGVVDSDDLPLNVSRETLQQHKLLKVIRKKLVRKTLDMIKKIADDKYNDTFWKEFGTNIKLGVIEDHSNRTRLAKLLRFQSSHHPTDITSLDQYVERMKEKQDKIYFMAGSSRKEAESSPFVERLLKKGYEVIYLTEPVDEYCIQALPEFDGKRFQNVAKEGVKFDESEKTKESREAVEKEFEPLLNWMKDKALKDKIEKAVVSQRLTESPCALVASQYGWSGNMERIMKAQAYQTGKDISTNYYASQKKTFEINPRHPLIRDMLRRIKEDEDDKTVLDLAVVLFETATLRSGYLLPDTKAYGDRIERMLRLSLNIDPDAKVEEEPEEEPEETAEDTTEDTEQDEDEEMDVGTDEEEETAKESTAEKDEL
UniProt P38646: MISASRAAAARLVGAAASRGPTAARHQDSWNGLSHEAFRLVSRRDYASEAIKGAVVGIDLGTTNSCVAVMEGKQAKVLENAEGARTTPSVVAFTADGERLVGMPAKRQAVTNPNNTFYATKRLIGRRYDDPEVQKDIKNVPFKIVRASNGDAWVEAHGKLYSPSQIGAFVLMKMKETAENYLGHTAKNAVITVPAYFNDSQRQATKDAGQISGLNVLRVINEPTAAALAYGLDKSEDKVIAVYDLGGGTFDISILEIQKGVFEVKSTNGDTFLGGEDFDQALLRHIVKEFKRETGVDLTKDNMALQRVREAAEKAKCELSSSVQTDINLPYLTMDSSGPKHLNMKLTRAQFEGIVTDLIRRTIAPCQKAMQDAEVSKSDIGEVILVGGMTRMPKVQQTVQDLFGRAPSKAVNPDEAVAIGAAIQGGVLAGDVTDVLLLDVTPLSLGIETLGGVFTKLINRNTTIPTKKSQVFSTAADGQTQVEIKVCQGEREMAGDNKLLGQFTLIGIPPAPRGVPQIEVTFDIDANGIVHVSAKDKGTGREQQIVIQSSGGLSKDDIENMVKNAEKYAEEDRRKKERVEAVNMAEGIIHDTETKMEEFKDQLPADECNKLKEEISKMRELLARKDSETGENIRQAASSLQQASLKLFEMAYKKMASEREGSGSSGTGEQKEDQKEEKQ

The target in the next experiment is HINT1 (UniProt P49773).
Experiment [1] deals with HLA class I histocompatibility antigen, Cw-7 alpha chain (human).
The next experiment addresses T1, HMGB2 (UniProt P26583).
T1 sequence: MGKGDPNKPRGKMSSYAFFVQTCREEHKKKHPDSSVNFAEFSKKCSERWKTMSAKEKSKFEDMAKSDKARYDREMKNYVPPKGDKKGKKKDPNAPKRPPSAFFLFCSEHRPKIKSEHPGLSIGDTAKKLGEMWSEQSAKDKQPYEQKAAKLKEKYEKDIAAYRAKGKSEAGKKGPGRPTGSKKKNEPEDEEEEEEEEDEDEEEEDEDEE

The next experiment deals with HMGN3 (UniProt Q15651).
The target of another experiment is HNRNPA1 (UniProt P09651).
Another experiment has as its target T2, HP1BP3 (UniProt Q5SSJ5).
T2 sequence: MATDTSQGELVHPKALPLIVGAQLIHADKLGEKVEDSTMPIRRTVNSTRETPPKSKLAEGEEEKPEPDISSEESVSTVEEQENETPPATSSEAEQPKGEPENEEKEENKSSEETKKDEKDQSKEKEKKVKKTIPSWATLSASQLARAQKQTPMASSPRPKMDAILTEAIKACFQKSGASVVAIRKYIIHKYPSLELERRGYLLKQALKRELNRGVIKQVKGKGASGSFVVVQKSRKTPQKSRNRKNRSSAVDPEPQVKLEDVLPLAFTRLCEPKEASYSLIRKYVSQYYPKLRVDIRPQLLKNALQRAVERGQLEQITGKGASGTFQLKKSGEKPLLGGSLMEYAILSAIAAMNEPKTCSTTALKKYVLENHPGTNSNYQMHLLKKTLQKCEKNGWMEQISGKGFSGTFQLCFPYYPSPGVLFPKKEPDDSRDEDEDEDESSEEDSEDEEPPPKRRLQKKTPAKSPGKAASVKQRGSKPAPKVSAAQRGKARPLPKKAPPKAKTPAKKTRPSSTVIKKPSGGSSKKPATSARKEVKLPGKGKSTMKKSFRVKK

The next experiment concerns the target HSP90B1 (UniProt P14625).
In another experiment the target is HSPA9 (UniProt P38646).

The source of these data is PMC5996148.

This is one part of the list. For some assays here: The exact form of the protein is not confirmed.

As to “GGTGACAGGGGTATGGGGAGGGG [G4-2 biotinylated (Ct1)]”, the binding signal is -0.382 z-score in the experiment on HGS (human); -0.389 z-score with HINT1; -0.389 z-score in the experiment with HIP1 (human); -0.378 z-score in the experiment on HIP2 (human); -0.387 z-score in the experiment on HK1 (human); -0.381 z-score in the experiment with HKDC1 (human). In addition, the binding signal is -0.381 z-score in [1]; -0.371 z-score with HMG20B (human); 6.19 z-score in the experiment with HMGB2; 4.29 z-score with HMGN3; -0.395 z-score in the experiment on HN1 (human); 5.27 z-score with HNRNPA1. The binding signal with HP1BP3 is 6.79 z-score; with HPCAL1 (human), -0.394 z-score; with HPGD (human), -0.384 z-score; in the experiment with HS2ST1 (human) it was -0.372 z-score; in the experiment on HS3ST1 (human), -0.371 z-score; in the experiment with HSBP1 (human), -0.389 z-score. For the same sequence, the binding signal in the experiment with HSP90B1 is -0.364 z-score; with HSPA9 it was -0.373 z-score.
